Data: patent US20170327779A1, “METHOD FOR PRODUCING CELL AGGREGATES” (Kaneka Corporation, priority 2015, published 2017)
Some entries share one result that the patent states for a list of compounds. For at least one compound, name, drawing or mass did not settle the structure.

Key:
human iPS cells [1] = test: Effect of LPA or S1P on cell aggregation of human iPS cells in suspension culture, microscopic observation; assay type: cell-based; conditions: 0.2 μg/mL or 1 μg/mL; Day 2 after the start of culture (FIG. 11)
Experimental: Human iPS cells that had been cultured using the protocol of Example 1 were treated with TrypLE Select, EDTA solution, or Accutase for 3 to 5 min and were detached. After dispersed as single cells, the cells were made to pass through a cell strainer with a pore size of 40 μm (Becton, Dickinson and Company) to monodisperse as single cells. The resulting cells were suspended in Essential 8™ medium containing a final concentration of 10 μM Y-27632 (Wako Pure Chemical Industries, Ltd.). A portion thereof was then stained with trypan blue and the number of cells was counted. Suspensions containing 2×10^5 cells per ml were prepared. […]
Inspected were 30 cell aggregates on an observation image obtained when the concentration of LPA was from 0.16 to 100 μg/mL. While being compared using a micrograph scale, the width (referred to as “φ”) of the widest portion of each cell aggregate was measured to calculate an average±standard deviation. […]
Inspected were 30 cell aggregates on an observation image obtained when the concentration of S1P was from 0.032 to 100 μg/mL. While being compared using a micrograph scale, the width (referred to as “φ”) of the widest portion of each cell aggregate was measured to calculate an average±standard deviation. […]

human iPS cells [2] = test: Percentage of cells positive for undifferentiation markers OCT4 and SOX2 after suspension culture with LPA or S1P; assay type: cell-based; conditions: 1 μg/mL; Day 5 (FIG. 14)

| Molecule | diameter of cell aggregates (human iPS cells [1]) | cells expressing undifferentiation markers OCT4 and SOX2 (human iPS cells [2]) |
| --- | --- | --- |
| 1-O-9Z-octadecenoyl-sn-glyceryl-3-phosphoric acid, a sodium salt [LPA] | ≤ 500 μm | ≥ 95% |
| CCCCCCCCCCCCC/C=C/[C@@H](O)[C@@H](N)COP(=O)(O)O [S1P, 2S-amino-1-(dihydrogen phosphate)-4E-octadecene-1,3R-diol] | ≤ 500 μm | ≥ 95% |
